Measured values published in PubChem BioAssay AID1508600 (Functional Genomics Laboratory (NCATS/FGL), 2020).
Hit rate of the full screen: of about 53,000 sequences, about 3,700 (7%) were called active.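 Rule for the calls: active = gene knockdowns whose robust z-score for IL-1 alpha signal is at least 2 or at most -2, so actives lie on both sides; inactive = the rest.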 This is one part of the list.

Experiment: Components of the Cytosolic LPS Sensing Pathway: Gene Identification via Genome-wide siRNA Screen;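 note: robust z of the log signal after scaling to non-targeting control siRNA wells of the plate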
Conditions: RAW264.7 macrophages, IL-1a HTRF, actives lie on both sides, screened at 100 nM (by protocol), cells primed 5 h with Pam3CSK4 first
Procedure, shortened: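 IL-1a HTRF of supernatants after 24 hour LipidA transfection of Pam3CSK4-primed (5 hours) RAW264.7 cells, 48h post-siRNA transfection (100 nM). Scores: percent of plate negative-control median, then log-based robust z-score.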
In the case of GGCCAAACAUAAUUUUGAGTT against Cwf19l2, the z-score is reported as inactive: -0.232. With GGCAUCCUGAAAAACAAAGTT against Celsr1 the z-score was inactive: -0.0587. For GGAAAUCAAGCCCUACAUCTT against Col4a2, the z-score was inactive: 0.152. In the case of GGCUUGCUUUGCUUCCCUUTT against Med28, the z-score is reported as inactive: -1.24. In the case of GGGCAUCAUCCUGAAAGAGTT against Cenpb, the z-score is reported as inactive: -1.05. In the case of GGUGUGCAUCAAGCGACUGTT against Cacng6, the z-score is reported as active: 2.1. With UGUGGACAAGGACUACUAATT against Ldoc1 the z-score was inactive: -1.15. In the case of GCUUAUUGAACUAUUGUUGTT against Trpc4, the z-score is reported as active: 3.72. For GGAGAAGGUCGAAAAGCCUTT against Rybp, the z-score was active: -2.01. For GCUUGAUUGUCAGUUGGAATT against Tcp11, the z-score was inactive: -0.364. For GAGAAGUCAAAACUGUCAUTT against Ear1, the z-score was inactive: -0.212. In the case of GGUGAUGUAAGCGUGAUUATT against Zfp763, the z-score is reported as inactive: -0.431. In the case of CCAUGUAUGCCUCAACAUATT against Ltf, the z-score is reported as inactive: 0.517. In the case of GGUAGAGCAUCAGUAUCUATT against Tex16, the z-score is reported as inactive: -0.47. With CGACAAAAGUACUUCGAGCTT against Scrib the z-score was inactive: -0.924. In the case of GCAAUGGUUCAGUAUGUACTT against Tpgs2, the z-score is reported as active: -2.01. For GGAAAAAGCUGUGAUACUUTT against Hspbap1, the z-score was inactive: -0.895. For CGCUGCCUAAACAAGAUUATT against Cacna1f, the z-score was active: 3.28. With CCAUUGGAGGAUAAGUUUUTT against Mtm1 the z-score was inactive: -0.0988. With AUGGGAGAAUCAGCAGAACTT against Set the z-score was active: -2.77. In the case of CCCUGGAUUGAGGAUCGUUTT against Mrgpra8, the z-score is reported as inactive: -1.14. For GGCUGCCUAACUGAUAACATT against Inpp4b, the z-score was inactive: 0.24. In the case of GGAAGUUGUUGGGAACUUCTT against Afmid, the z-score is reported as inactive: -0.401. In the case of GGUAGUCAGGGCUGACUUATT against Tsen15, the z-score is reported as inactive: -0.304. For GCCAAGGACAACUAUUUUGTT against Kcnj9, the z-score was inactive: 0.048. In the case of CCCAGGAAGCCUUUGAUCUTT against Gmnn, the z-score is reported as inactive: 0.263. With GGAAAGUUCCAAGUUACCATT against Arl13b the z-score was inactive: 1.18. For CGGUAUUAGUAGCAAUGGUTT against Tmem45a2, the z-score was inactive: 1.6. For GCGAACUCGGGAAACAACUTT against Rnf4, the z-score was inactive: -0.0525. For “GCACUCGAAAGCGAUGUAATT against 9130019P16Rik”, the z-score was inactive: -0.232. In the case of GGAGGAACAGCUCAGAUGUTT against Olfr524, the z-score is reported as inactive: 0.562. For GCGAACAUCCAGAGAAUGUTT against Mtcl1, the z-score was inactive: -0.719. For GGAGAGUGCAGUGAUUGCCTT against Mybpc1, the z-score was inactive: -1.23. In the case of “GGGUUUUGGAGACAGUAUUTT against 2700081O15Rik”, the z-score is reported as inactive: 0.631. In the case of GGCCAUGCUACAAGUUCAATT against Trem1, the z-score is reported as inactive: 0.258. For CCGGGUAGCUACUGUUAUGTT against Olfr365, the z-score was inactive: -0.76. For “CGAGACUAGAUUCGUGCAGTT against D930048N14Rik”, the z-score was inactive: 0.457. In the case of GGUUCCACUAAUCUUUUUATT against Mark3, the z-score is reported as inactive: 0.696. For GGAAACUUGCUCAAUUUCCTT against Sec22a, the z-score was inactive: -0.782. In the case of GGAGACUUUGACCAAAUUATT against Gm3579, the z-score is reported as inactive: -1.15. For CCCUUUAUAUCGAUUUCGGTT against Spata2, the z-score was inactive: 0.85. For GGACAUAGACUUAAGUAGUTT against Casp8ap2, the z-score was inactive: 0.657. With UGAGGAGACUAUUUAUUAGTT against Olfr1318 the z-score was inactive: -1.57. With GGAAGACAUACUGUUGAAATT against Mettl23 the z-score was inactive: -0.147. In the case of GGAUAUACACAACAGGCACTT against Tceal9, the z-score is reported as inactive: 0.422. For GCCGGAUGAAAUAACCAAATT against Gid8, the z-score was inactive: -0.395. With GCUAGGUUCCAGCAAUUGCTT against Klf17 the z-score was inactive: 1.51. In the case of GGUUUGAUCUCAUUUUCCUTT against Mcm4, the z-score is reported as active: 2.92. In the case of GGAGCAGAGGCCAUGAGAATT against Pik3r4, the z-score is reported as inactive: 0.191. With “GCUUUUGGACUGAAUCUCATT against 2210016L21Rik” the z-score was active: 2.78. In the case of GGCCUUGGAGUAGCUUUGATT against Ints2, the z-score is reported as inactive: 1.68. With GCAAGCUAUGGUACGCAGATT against Dapk2 the z-score was inactive: 0.489. In the case of GCACAGCUUUUUGGAUCUGTT against Zfyve26, the z-score is reported as inactive: -0.75. For GCUGAAGUGUGUCACACGUTT against Rtf2, the z-score was inactive: -0.134. For CCAUUUAAUCUGGCAGAGCTT against Kif11, the z-score was inactive: -0.651. For GCAGGACAAGGACAACACUTT against Dyrk2, the z-score was active: -2.1. In the case of CGCAGAUGUGUUAACUAAATT against Mid1ip1, the z-score is reported as inactive: 1.14. With GGCUCGGCUUUUGACACAUTT against Ormdl2 the z-score was inactive: 0.176. For GGUGGAUUUCUGUAAAUUCTT against Gm20735, the z-score was inactive: -0.302. With GAUUACUCCACCUAUCUCUTT against Rtl6 the z-score was inactive: 0.646. With GGAUAAUGCUCCAUCAUAGTT against Nab1 the z-score was inactive: -0.419. For GGACCUCUAAAAGGAAAAUTT against Tdrd7, the z-score was inactive: -1.35. In the case of GCCUAAGUUCCCUUAUUAATT against Arfrp1, the z-score is reported as inactive: 0.155. In the case of GGGUGUCCACAAAAAUUCATT against Dip2b, the z-score is reported as inactive: 0.909. With GCUAACACCUCACAUCUGGTT against Adam1a the z-score was inactive: -0.173. In the case of CCAACGCGUGUUAUAUGUGTT against Prep, the z-score is reported as inactive: 0.907. With GCAUCAACUGUUAGUAAAGTT against Agfg1 the z-score was inactive: -0.23. In the case of GGAAGCCAUCUUUAUCCUGTT against Pole4, the z-score is reported as inactive: -1.33.
